Earlier results in PMC10778980, “Profiling Novel Quinuclidine-Based Derivatives as Potential Anticholinesterase Drugs: Enzyme Inhibition and Effects on Cell Viability” (International Journal of Molecular Sciences, 2023).
Like-named read-outs stand apart in the source and are kept apart here.

Legend:
HepG2 cells = details: controls, cited from earlier work
SH-SY5Y cells = details: 4 h exposure; controls; read-out: IC50 ± SE SH-SY5Y 4 h; cited from earlier work

CN[C@@H]1C[C@H]2O[C@@](C)([C@@H]1OC)n1c3ccccc3c3c4c(c5c6ccccc6n2c5c31)C(=O)NC4 [SS, staurosporine]
IC50 (HepG2 cells; 1 h exposure, read-out: IC50 ± SE HepG2 1 h): ≥ 2000 nM
IC50 (HepG2 cells; 4 h exposure, read-out: IC50 ± SE HepG2 4 h): ≥ 2000 nM
IC50 (HepG2 cells; 24 h exposure, read-out: IC50 ± SE HepG2 24 h): ≥ 2000 nM
IC50 (SH-SY5Y cells): 3000 ± 10 nM
